Assay results taken from PubChem BioAssay AID2517 (National Center for Advancing Translational Sciences (NCATS), 2010).
“And” between values parts separate entries of the source, which are not always exact repeats. Identical values can stand only once. Hit rate of the full screen: of about 350,000 compounds, about 1,200 (0.34%) were called active. Inconclusive results, whose numbers are uncertain, are shown with a selection of clear calls. The call rests on the fitted dose curve; in most records, active means well fitted inhibition curve with a large enough effect; inconclusive means small, poorly fitted or top-dose-only effect; inactive means no such curve, though single readings can be large or run the other way. Potencies beside an inconclusive call are fits to weak or partial responses and may not hold up.

Chains of the proteins cited; added tags and fusions are not shown.
UniProt P27695, whole entry, looked up: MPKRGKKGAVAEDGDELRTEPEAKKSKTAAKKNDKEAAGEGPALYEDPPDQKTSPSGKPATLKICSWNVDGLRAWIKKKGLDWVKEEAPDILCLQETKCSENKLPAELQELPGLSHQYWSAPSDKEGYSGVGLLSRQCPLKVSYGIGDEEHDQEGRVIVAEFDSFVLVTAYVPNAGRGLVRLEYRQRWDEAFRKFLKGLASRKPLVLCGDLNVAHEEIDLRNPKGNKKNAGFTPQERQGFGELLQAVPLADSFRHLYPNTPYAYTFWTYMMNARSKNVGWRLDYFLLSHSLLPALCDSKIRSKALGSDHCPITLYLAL

Target: DNA repair nuclease/redox regulator APEX1 (Homo sapiens) (UniProt P27695)
Test: qHTS Assay for Inhibitors of the Human Apurinic/apyrimidinic Endonuclease 1 (APE1); further: nearly all actives have a fitted effect of over 55% in size;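 on activity change, negative = inhibition: plate controls were vehicle for no effect and reference inhibitor for full effect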
Settings: recombinant APE1, TAMRA/BHQ-2 abasic DNA cleavage fluorescence; activity change, negative = inhibition: at 65.8 µM (top of the series)
Procedure, shortened: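 Enzyme (0.75 nM final) and test compound are incubated 15 min at room temperature before adding 50 nM quenched THF abasic-site duplex. Cleavage dequenches TAMRA, followed at 525/598 nm over three reads one minute apart.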
Potency means the concentration at half of the fitted maximal effect.

Row | Structure (SMILES) | activity change, negative = inhibition | Potency
1 | c1ccc(-c2ccc(-c3csnn3)cc2)cc1 | inactive: -5.18% | –
2 | CCCCN1CC2([N+](=O)[O-])C=CC(=O)C([N+](=O)[O-])(C1)C2CC(=O)c1ccccc1 (centres undefined) | inactive: -3.51% | –
3 | O=C(Nc1cccc(S(=O)(=O)N2CCOCC2)c1)[C@@H]1CCCN1S(=O)(=O)c1ccc(Cl)cc1 | inactive: -0.526% | –
4 | COC(CNC(=O)c1ccc2c3c(onc13)-c1ccccc1C2=O)OC | – | inconclusive: 25.1 µM [inhibitor, partial curve]
5 | CCC1=NN2C(=N)/C(=C\c3cccn3-c3cccc(Cl)c3)C(=O)N=C2S1 | inactive: -6.12% | –
6 | C=CCNC(=O)CN1CCC(n2c(C)nc3cc(C(F)(F)F)ccc32)CC1 | – | inconclusive: 4.47 µM [inhibitor, single point]
7 | N[C@H](Cc1c[nH]c2ccccc12)C(=O)O | – | inconclusive: 44.7 µM [inhibitor, partial curve, poor fit]
8 | O=C(O)c1cccc(NC(=S)NC(NC(=O)c2cccc([N+](=O)[O-])c2)C(Cl)(Cl)Cl)c1 (centres undefined) | – | inconclusive: 11.2 µM [inhibitor, partial curve]
9 | COc1ccccc1CNCC(O)(c1ccc(Cl)cc1)c1ccc(Cl)cc1 | – | inconclusive: 44.7 µM [inhibitor, single point]
10 | COc1ccc(-n2c(SCC(=O)NCC3CCCO3)nc3n[nH]c(C)c3c2=N)cc1 (centres undefined) | – | inconclusive: 39.8 µM [inhibitor, single point]
11 | N[C@@H](C(=O)O)c1ccc(C(=O)O)cc1 | – | inconclusive: 39.8 µM [inhibitor, partial curve]
12 | CCOc1nc(C)cc(C)c1S(=O)(=O)c1cccc(C)c1 | – | inconclusive: 39.8 µM [inhibitor, single point]
13 | CS(=O)(=O)NN1C(=O)c2ccccc2NC1c1ccccc1 (centres undefined) | – | inconclusive: 39.8 µM [inhibitor, single point]
14 | O=C(Nc1ccccc1F)Nc1cccc2ccc(O)cc12 | – | inconclusive: 1.58 µM [inhibitor, partial curve]
15 | CCCn1c(NCc2cc(OC)ccc2OC)nc2ccccc21 | – | inconclusive: 44.7 µM [inhibitor, single point]
16 | CCC(C)c1ccc(OCC(=O)Nc2ccc3c(c2)C(=O)NC3=O)cc1 (centres undefined) | inactive: 13.6% | –
17 | COc1cc(C(=O)Nc2nc(OC)c(-c3ccccc3)c(OC)n2)cc(OC)c1OC | – | inconclusive: 28.2 µM [inhibitor, partial curve]
18 | CNC1=C(Br)C(=O)c2ccncc2C1=O | – | inconclusive: 17.8 µM [inhibitor, partial curve]
19 | C=CC(C)(C)c1[nH]c2ccccc2c1C1=C(O)C(=O)C(c2c[nH]c3c(CC=C(C)C)cccc23)=C(O)C1=O | – | active: 20 µM
20 | COc1ccc(C(=O)/C=C/Sc2nc3ccccc3o2)cc1 | – | inconclusive: 7.08 µM [inhibitor, single point]
21 | CC1CC(C)CN(c2ccc([N+](=O)[O-])cc2-c2nn[nH]n2)C1 (centres undefined) | inactive: -1.98% | –
22 | COc1ccc(/C=N/N=C2/NC(=O)C(CC(=O)O)S2)cc1OCc1ccc(Cl)cc1Cl (centres undefined) | – | inconclusive: 35.5 µM [inhibitor, single point]

Row | Structure (SMILES) | activity change, negative = inhibition | Potency
23 | O=C(COc1ccc(Cl)cc1)NCCCNC(=O)c1ccncc1 | – | inconclusive: 8.44 µM [inhibitor, single point]
24 | Cc1nc(N2CCN(C(=O)c3ccco3)CC2)c(C#N)c2c1CCCC2 | inconclusive: -8.65% [inhibitor] | –
25 | CCOC(=O)N/N=C1/C[C@@H](O)[C@@H](O)[C@@H]2[C@H]3C(=O)N(c4ccc(F)cc4F)C(=O)[C@@H]3CC[C@H]12 | inactive: -11.1% [at 12.4 µM] | –
26 | O=C(O)c1ccc(O)c(N2C(=O)Nc3ccccc3N2O)c1 | – | inconclusive: 20 µM [inhibitor, single point]
27 | CCCCCCNC(=O)Nc1ccc(S(=O)(=O)Nc2ccc(CCNC[C@H](O)COc3ccc(O)cc3)cc2)cc1 | inactive: -2.98% | –
28 | CCCCC(=O)Nc1nc(C)c(-c2csc(Nc3cc(Cl)ccc3OC)n2)s1 | – | inconclusive: 25.1 µM [inhibitor, partial curve]
29 | CCOc1ccc(OCCC(=O)OCC(=O)N2CCN(S(=O)(=O)c3ccc(Cl)cc3)CC2)cc1 | – | inconclusive: 23.8 µM [inhibitor, partial curve]
30 | Cc1ccc(-c2nc3c4ccccc4ccn3c2CN2CCCCC2)cc1 | – | inconclusive: 0.0251 µM [inhibitor, full curve, poor fit]
31 | O=C(O)c1cc2ccccc2c(Cc2cc3ccccc3c(C(=O)O)c2O)c1O (tested in a mixture with another compound) | – | inconclusive: 8.91 µM [inhibitor, single point]
32 | CSCC[C@H](NC(=O)NC1CCCC1)C(=O)O | – | inconclusive: 39.8 µM [inhibitor, single point]
33 | O=C(CSc1nn(-c2ccccc2)c(=S)s1)Nc1ncccn1 | inactive: 6.46% | –
34 | O=C(O)/C=C/C(=O)NCc1cn(-c2ccccc2)nc1-c1cccc(Br)c1 | – | inconclusive: 35.5 µM [inhibitor, single point]
35 | Cc1ccc(/C=C/C(=O)c2ccccc(=O)c2O)cc1C | – | inconclusive: 1.78 µM [inhibitor, partial curve, poor fit]
36 | CCNc1nc(SCCOc2ccc(Cl)cc2Cl)nc(N(C)C)n1 | – | inconclusive: 28.2 µM [inhibitor, single point]
37 | COC(=O)c1cc(OC)c(OC)cc1NC(=O)c1ccco1 | – | inconclusive: 31.6 µM [inhibitor, single point]
38 | O=C(CSc1nn(-c2ccc(F)cc2)c(=S)s1)NC(=O)NCc1ccco1 | – | inconclusive: 39.8 µM [inhibitor, single point]
39 | CCCCc1c(CCC)c(=N)c2ccccc2n1C | inactive: -0.415% | –
40 | CCCCC/C=C/C=C1/C(=O)C=C[C@@H]1C/C=C\CCCC(=O)O | – | inconclusive: 14.1 µM [inhibitor, partial curve] and inconclusive: 35.5 µM [inhibitor, partial curve]
41 | O=C(N/N=C/c1cn(-c2ccccc2)nc1-c1ccc2c(c1)OCCO2)c1ccncc1 | inactive: -8.85% | –
42 | O=[N+]([O-])c1ccc(O)c(C=Nc2cccc3ccccc23)c1 | inactive: -3.23% | –
43 | CCOC(=O)c1sc2cc([N+](=O)[O-])cc(SCCO)c2c1N | – | inconclusive: 3.55 µM [inhibitor, single point]
44 | Cc1cc(/C=N/NC(=O)c2ccncc2)c(C)n1-c1ccccc1 | inactive: -5.03% | –

Row | Structure (SMILES) | activity change, negative = inhibition | Potency
45 | CN1CCc2cc(O)c(O)cc2C1Cc1ccc(O)c(O)c1 (centres undefined) | inactive: -5.5% | –
46 | CCOC(=O)c1c(C)[nH]c(C(=O)CSc2nnc(-c3cccs3)n2Cc2ccccc2)c1C | – | inconclusive: 44.7 µM [inhibitor, single point]
47 | O=c1[nH]c2ccc(NC(=S)Nc3ccccc3Cl)cc2[nH]1 | – | inconclusive: 0.282 µM [inhibitor, full curve, poor fit]
48 | CC12C=C(/C=C/C=C/c3ccccc3)C(C)(C1)C(/C=C/c1ccccc1)CC2=O (centres undefined) | – | inconclusive: 3.98 µM [inhibitor, single point]
49 | O=C(N/N=C/c1ccc(-c2ccc(S(=O)(=O)Nc3ncccn3)cc2)o1)c1cc2ccccc2cc1O | – | inconclusive: 31.6 µM [inhibitor, single point]
50 | COC(=O)N1C2=C(c3ccccc3[C@@H]1CC(=O)Nc1ccc3ccc4cccc5ccc1c3c45)[C@@H]1C(=O)N(c3ccccc3)C(=O)[C@@H]1[C@H](C)C2 | – | inconclusive: 11.2 µM [inhibitor, partial curve, poor fit]
51 | COc1ccc(-c2csc(N(CC3CCCO3)C(=O)c3ccco3)n2)cc1 (centres undefined) | – | inconclusive: 10 µM [inhibitor, single point]
52 | COc1cccc(C(=O)NC(=S)Nc2ccc(N(C)C)cc2)c1 | – | inconclusive: 20 µM [inhibitor, single point]
53 | O=C1C=C[C@@H](O)[C@H]2[C@@H]3C(=O)N(C4CCCCC4)C(=O)[C@@H]3CC[C@H]12 | inactive: 11.8% [at 12.4 µM] | –
54 | Cc1ccccc1NC(=O)c1snc2c(=O)[nH]cnc12 | – | inconclusive: 3.98 µM [inhibitor, full curve, poor fit]
55 | Cc1ccc(NC2=C(NCCO)C(=O)c3ccccc3C2=O)cc1 | – | inconclusive: 12.6 µM [inhibitor, partial curve, poor fit]
56 | COC(=O)[C@H](NC(=O)c1cc(-c2ccccc2)nc2ccccc12)c1ccccc1 | – | inconclusive: 25.1 µM [inhibitor, single point]
57 | COc1cc(OC)c2c(c1C(CCN1CCCC1)c1ccc(N(C)C)cc1)OC(=O)CC2c1ccc(N(C)C)cc1 (centres undefined) | inactive: -10.9% | –
58 | N#Cc1cc2nc(O)c(O)nc2cc1[N+](=O)[O-] | – | inconclusive: 22.4 µM [inhibitor, partial curve]
59 | COc1ccc(-c2cc(=O)[nH][nH]2)cc1OC | – | inconclusive: 12.6 µM [inhibitor, partial curve, poor fit]
60 | COC(=O)C1CC(O)CN1C(=O)Nc1cccc(C(F)(F)F)c1 (centres undefined) | – | inconclusive: 7.94 µM [inhibitor, single point]
61 | Cl/C(=C\n1cncn1)c1ccc(Cl)cc1Cl | – | inconclusive: 7.08 µM [inhibitor, single point]
62 | CCOC(=O)c1sc(NS(=O)(=O)c2ccc(NC(C)=O)cc2)nc1C | – | inconclusive: 17.8 µM [inhibitor, partial curve]
63 | CCCn1nnc(NC(=S)NC(=O)/C=C/c2ccco2)n1 | – | inconclusive: 31.6 µM [inhibitor, single point]
64 | O=S(=O)(NCc1c(Cl)cccc1Oc1ccccc1)c1ccc(F)cc1 | – | inconclusive: 44.7 µM [inhibitor, single point]
